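Luminescence from an EWS-FLI1 target-promoter (NR0B1) reporter, set against a CMV-promoter reporter, two days after silencing single genes in TC32 Ewing sarcoma cells. Each siRNA was applied at 20 nM. A z-score of the log NR0B1-over-CMV signal, less the median of siRNAs with the same seed; more negative means a stronger specific loss of the NR0B1 reporter.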

This is part of the screen; most of the strongest results are not listed here. Sequences are the guide (antisense) strand, without overhang.

strand	gene	seed-corrected z-score
UCAUGUUACAGGAAUCCGC	SARAF	-0.02454
UUUCUCAACAUCGAAGGUG	SPAG4	-0.1417
UCUUGUAGCAGACAUUAGC	TTC26	0.5544
UCAAUAGUCAUGGUAGCCU	PPM1G	-0.04608
UGUUUGUCUGUUGCAAGGC	CLSPN	-0.2721
UUUGUUCCUGAAAGUAUCC	MUM1L1	2.845
UUCUUGAUAACCUCAUAGC	UGT2A1	0.01167
UAGUUGACAAUCUUGACUG	IGDCC4	-0.5958
AUUUGGUGACUAACCGUCC	PRAMEF14	0.1778
UUGAGUAAUUUAGUGCAGG	COX5B	-1.526
UUCCGAAGUACGAUGAGAC	UTRN	-0.6447
AAAGUGGUUGGGUAUAAUC	AADACL2	-0.03081
UCCAUUGUCAUAACAACCG	FN1	-0.313
UAUUGAAAGAAUUCCAAUG	APTX	0.4542
UAACAUAACAUGCCGGUAC	CKS2	0.03245
ACAGUAAUCACAUUUACAG	ZNF18	1.343
UCAGGGAUCAGCCUCCUUC	HLA-G	-1.257
AAAACAUUCAGCCCUAACC	NOX1	0.09455
UUAUCAACCACAAUAUCCC	RBX1	-0.529
UUCGGAAUCACAAAGACCU	KYNUP2	1.203
UGCGUAGUGACAGCUCCUC	MYOZ3	1.159
UCAUUGACAAGACGGUUCC	SLITRK2	0.3208
UUGGGAUUAUUGUUCGUGG	KCNA3	0.2523
UUGAUUUCUCCAUCCAGGG	KRT73	0.00842
AGAUGUAUUAGUCCUGAAG	CFHR5	-0.9201
UUUUAUUCUAACAGCACUG	ZNHIT1	-1.604
UGGGUUCUCAAACAGAUGC	CRYBB3	0.3587
CAAGUUCUAAUCGCCAGGC	LINC00936	-0.08463
UAGUAGUUGAGAUACUUGG	P3H4	-0.1696
UUUCGGGCUAUGUUGACUU	NELFE	0.2735
GCAGGAAGCACUGGUCAUG	SLURP1	1.473
UACAGGGUCAAAUGCCUGC	GDPGP1	-0.3205
UCAGGAUCAAUUUCUACCC	GK5	0.2778
UUCCCAUUCAACUCCAGUC	SIAH2	-0.1532
UUACCAAACUUCCACACGG	TAF1C	0.01318
UCUGCUAUCAAAUCUAAGG	HECTD4	-0.01902
UUCGGUAAAGCAACGUAUC	RUNDC3B	0.9574
AUCCUGUCCAUCAUGCUUC	ISOC1	1.428
UUCCGUAUCUGAUUGUUGC	RPS3A	2.539
UAGUCUUUUGCUGCCUUUC	LINC00381	0.5301
UGAGUGGGAACUGUUAAGG	C17orf53	-0.4227

From PubChem BioAssay record AID1159506 (NCATS, 2015).